Results from patent publication US20260174769A1, “MACROCYCLIC COMPOUNDS AND METHODS OF USE” (AMGEN INC., priority 2022, published 2026).
Structures were worked out from names or drawings and are uncertain.

Test system: phospho-ERK1/2 in PANC 04.03 tumors
Test: Tumor Pharmacodynamic Assay (p-ERK inhibition in PANC 04.03 tumor-bearing mice)
Settings: PANC 04.03 tumor-bearing female athymic nude mice; single oral dose 100 mg/kg; tumors harvested 2 hours later; p-ERK1/2 normalized to total ERK1/2, relative to vehicle group; tested form: 2,2,2-trifluoroacetate; mixture of the
Experimental: Tumor Pharmacodynamic Assays
Inhibitor pharmacodynamic effects were assessed in PANC 04.03 tumor-bearing mice. PANC 04.03 tumor cells (5.0E+06 cells) were injected subcutaneously into the flank of female athymic nude mice in a mixture with Matrigel (BD Bioscience). Mice received a single oral dose of either vehicle or inhibitors (100 mg/kg) when the average tumor size reached ˜300-600 mm^3 (n=3/group) and harvested 2 hours later. Tumor samples were collected, snap frozen, and processed for analysis by pulverizing with a cryoPREP® Dry Impactor (Covaris). Pulverized samples were resuspended in RIPA lysis buffer containing protease and phosphatase inhibitors and homogenized. Cleared lysates were analyzed using phospho-ERK1/2 and total ERK1/2 whole cell lysate kits (Meso Scale Discovery) according to the manufacturer's protocol. Phospho-ERK1/2 signal was normalized to total ERK1/2 signal for a given sample, and percent inhibition of p-ERK was calculated relative to the vehicle group.

OC1CC2COCCCCc3c(Cl)cc4[nH]ncc4c3-c3ncc4c(nc(OC[C@@]56CCCN5C[C@H](F)C6)nc4c3F)N(C1)C2 (single isomer, unassigned)
p-ERK (% inhibition) 2 hr.: 83%
